At least one compound was matched to its structure with a doubt left.
Key:
CXXC5 = conditions: transgenic Alzheimer's disease mouse model; Control vs. Pioglitazone; FIG. 1C; cited from earlier work
serum active GLP-1 = assay: Serum active GLP-1 in NASH mouse models (STZ-induced, MCD-induced); format: in vivo, mice; conditions: FIG. 6A-6B
Method: FIG. 6A. Graph illustrating the serum active GLP-1 levels in NCD-mice (“Chow”) and RFD-fed, STZ-induced NASH mice that were treated with vehicle, A3334, A3051, selonsertib, and ocaliva.
FIG. 6B. Graph illustrating the serum active GLP-1 levels in NCD-mice (“Chow”) and RFD-fed, methionine-choline deficient diet (MCD)-induced NASH mice that were treated with vehicle, A3334, A3051, selonsertib, ocaliva (“OCA”), and A3486.
Blood chemistry. Total blood of mice was collected by cardiac puncture. The blood was allowed to clot for 30 min and was then centrifuged for 30 min at 3,000×g to obtain supernatant to measure active GLP-1 concentration. ELISA assay kits were used to assess serum active GLP-1 (7-36).

Row | SMILES | expression of CXXC5 (CXXC5) | active GLP-1 expression in blood serum (serum active GLP-1)
1 | CCc1ccc(CCOc2ccc(CC3SC(=O)NC3=O)cc2)nc1 (centres unmarked) [Pioglitazone] | suppressed | 
2 | CC[C@H]1[C@@H](O)[C@@H]2[C@H](CC[C@]3(C)[C@@H]([C@H](C)CCC(=O)O)CC[C@@H]23)[C@@]2(C)CC[C@@H](O)C[C@@H]12 [ocaliva, reference compound] |  | did not have any effect
